Record: PubChem BioAssay AID1259308 (NCATS, 2017)
In all, the deposit lists about 59,000 reagents; below is an unselected part. Of all reagents, about 1,510 (2.6%) got an active call. 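Calls use total luciferase alone and ignore viability, so some active siRNAs may act by altering cell number.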 A number with no mark means an inactive call. The numbers tell different reagents against one gene apart. Further read-outs or replicates are left out here.

Assay: 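Candidate targets for better recombinant protein yield in mammalian cells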 (primary screen)
System: human HEK293 embryonic kidney cells stably expressing firefly luciferase (HEK-CMV-Luc2-Hygro)
Reagents: single siRNA against human genes, 0.8 pmol siRNA per well
Timing: 72 h
Read-out: 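Luciferase light (ONE-Glo) measured on one replicate plate set and viability (CellTiter-Glo) on the other, scaled to a negative control siRNA, with robust z-scores and luciferase per cell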
Direction: total luciferase, z-score: higher = more reporter protein produced
Hit rule: 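An siRNA counts as active if its total luciferase robust z-score exceeds 3; genes with two or more such siRNAs out of three were retested with fresh siRNAs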
Meaning of the calls: active = raised luciferase; inactive = no rise

The first 2 records as a preview:
target gene | reagent no. | total luciferase, z-score
BCAS1 | 1 | 1.69
BCAS1 | 2 | -0.106

The list itself, repeating the preview:
target gene | reagent no. | total luciferase, z-score
BCAS1 | 1 | 1.69
BCAS1 | 2 | -0.106
BCAS1 | 3 | 1.98
AGPAT3 | 1 | -1.64
AGPAT3 | 2 | -1.41
AGPAT3 | 3 | 1.06
PPWD1 | 1 | 1.43
PPWD1 | 2 | -0.355
PPWD1 | 3 | 0.454
RNF166 | 1 | -1.44
RNF166 | 2 | 0.378
RNF166 | 3 | -0.44
DST | 1 | -0.0294
DST | 2 | 1.33
DST | 3 | 0.553
GZF1 | 1 | -0.77
GZF1 | 2 | -1.12
GZF1 | 3 | 2.7
DHRS1 | 1 | 1.23
DHRS1 | 2 | -1.22
DHRS1 | 3 | 0.453
PLEKHA3 | 1 | 0.000753
PLEKHA3 | 2 | 1.17
PLEKHA3 | 3 | 0.209
CABP1 | 1 | 1.17
CABP1 | 2 | -0.401
CABP1 | 3 | -1.22
SLX9 | 1 | 0.392
SLX9 | 2 | 0.75
SLX9 | 3 | 0.466
RASGEF1B | 1 | 0.985
RASGEF1B | 2 | -0.174
RASGEF1B | 3 | 1.59
WWC1 | 1 | 0.846
WWC1 | 2 | -1.11
WWC1 | 3 | 0.0261
ZGRF1 | 1 | -0.426
ZGRF1 | 2 | -0.406
ZGRF1 | 3 | -3.28
ZGRF1 | 4 | 0.417
ZGRF1 | 5 | -0.104
ZGRF1 | 6 | -1.32
DDIT4 | 1 | 0.215
DDIT4 | 2 | -0.218
DDIT4 | 3 | 2.68
AIMP2 | 1 | 2.27
AIMP2 | 2 | 1.13
AIMP2 | 3 | 1.57
DPEP3 | 1 | -1.14
DPEP3 | 2 | 0.0483
DPEP3 | 3 | -0.693
VAT1 | 1 | -0.341
VAT1 | 2 | -0.0964
VAT1 | 3 | -1.44
MBNL3 | 1 | 1.19
MBNL3 | 2 | 0.627
MBNL3 | 3 | 0.386
